# The other results are listed elsewhere or left out. The main result of the screen is listed elsewhere. These columns were measured beside it and carry no call. Most of these compounds were active or inconclusive in the main read-out, so they are no random draw. Potencies come from curve fits of mixed quality, noted in brackets.
# Assay: qHTS Assay for Lipid Storage Modulators in Drosophila S3 Cells;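 as to cell number change: cells counted by Cell Tracker Red CMTPX staining in the red channel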
# Settings: BODIPY lipid droplet fluorescence, 18-24 h; for cell number change: measured here: cell count max response, cells fed with added oleic acid
# Procedure, shortened: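 Laser-scanning cytometry quantifies lipid droplet accumulation (500–530 nm total intensity; droplet/cell object ratio) in oleic acid-fed (400 uM added) Drosophila S3 cells treated with a concentration series. 20 uM Triacsin C defined 100% inhibition.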
# [1] = measured here: cell number channel AC50, cells fed with added oleic acid
# [2] = measured here: lipid fluorescence (Fed channel) AC50, cells fed with added oleic acid
SMILES,cell number change [%],AC50 [1],AC50 [2]
O=C(COC(=O)c1ccc(F)cc1Cl)NC(=O)NC1CCCC1,-37.2,"16.4 µM [falling, single point]","5.8 µM [falling, full curve]"
CCCCN(CC)C(=O)c1cc2c(=O)[nH]c3ccc(C)cc3c2s1,-9.92,,
CC1(C)C(=O)Nc2ccccc2N1C(=O)COC(=O)CNS(=O)(=O)c1ccc(F)c(F)c1F,1.68,,"0.00411 µM [rising, full curve, poor fit]"
CC1=C(C)/C(=N\OS(=O)(=O)c2ccc(C)cc2)C=CC1=O,-77,"1.64 µM [falling, full curve]","1.46 µM [falling, full curve]"
CCOC(=O)c1sc(N)c(C(=O)Nc2ccccc2OC)c1C,138,"20.6 µM [rising, partial curve]",
CCCCC(=O)OCC(=O)c1cc(C)n(-c2c(C)n(C)n(-c3ccccc3)c2=O)c1C,,"6.51 µM [falling, single point]","4.61 µM [falling, partial curve, poor fit]"
Cc1nnc(SCc2ccccc2CSc2nnc(C)s2)s1,1.55,"6.51 µM [falling, partial curve, poor fit]",
Cc1cccc(OCCOC(=O)C2CCN(S(=O)(=O)c3cccs3)CC2)c1,-15.3,,"25.9 µM [rising, single point]"
Cc1cccc(OCC(=O)NC(=S)Nc2ccc(S(=O)(=O)NC3CCCCC3)cc2)c1,3.13,,
O=C(C1CCCC1)N1CCN(S(=O)(=O)c2ccc(Cl)cc2)CC1,7.89,,"0.1 µM [rising, full curve, poor fit]"
COc1ccc(CN(Cc2ccncc2)C(=O)CCC(=O)O)cc1,2.95,,
CCN(CC)S(=O)(=O)c1cc(NC(=O)c2n[nH]c(=O)c3ccccc23)ccc1C,,,"3.26 µM [falling, partial curve]"
CCc1ccc(N(C(=O)c2snc(C(N)=O)c2N)C(C(=O)NC2CCCC2)c2ccncc2)cc1 (configuration not stated),-12.8,,"5.17 µM [falling, single point]"
Cc1ccc(Nc2nc3ccccc3c(=O)[nH]2)cc1C,4.98,"0.103 µM [rising, full curve, poor fit]","0.517 µM [rising, full curve, poor fit]"
CCc1ccc(OCCSc2nc3ccccc3n2CC(=O)O)cc1,-5.25,,"0.58 µM [falling, single point]"
Cc1noc(NS(=O)(=O)c2ccc(NC(=O)CC(C)C)cc2)c1C,-7.83,,
O=C(NCC(c1cccs1)N1CCOCC1)c1ccc(OCc2ccccc2)cc1 (configuration not stated),-7.59,"4.11 µM [falling, single point]",
COc1ccc2nc(NC(=O)c3cnccn3)sc2c1,68.3,"16.4 µM [rising, partial curve]",
COc1ccc(N(CC(=O)Nc2ccc3c(c2)OCCO3)S(=O)(=O)c2c(C)nn(C)c2C)cc1,2.53,,"6.51 µM [falling, single point]"
C=CCn1c(C2CC2)n[nH]c1=S,151,"20.6 µM [rising, single point]","4.61 µM [falling, single point]"
COCCSc1ccccc1C(=O)NCCc1ccccc1,-19.7,,

SMILES,cell number change [%],AC50 [1],AC50 [2]
CC(NC(=O)c1cc(S(=O)(=O)N(C)C)ccc1Cl)c1ccc(-n2ccnc2)cc1 (configuration not stated),44.9,"13 µM [rising, partial curve]","7.31 µM [rising, partial curve]"
Cc1ccc(NCCC(=O)c2ccc(Br)cc2)cc1,-16.9,,"29.1 µM [falling, single point]"
O=S(=O)(c1ccccc1)N1CCC(=NO)CC1,19.3,"2.59 µM [rising, single point]","3.66 µM [rising, single point]"
COc1ccc(Cl)cc1NC(=O)c1ocnc1C,-7.65,,"0.146 µM [falling, full curve, poor fit]"
CCOC(=O)c1ccc(CNC(=O)c2cc(COc3ccccc3SC)on2)o1,24.1,"0.517 µM [rising, full curve]",
Cc1ccc(Nc2c([N+](=O)[O-])c(=O)oc3ccccc23)cc1C,6.09,,
C=CCn1c(SCc2c(C)noc2C)nnc1C1COc2ccccc2O1 (configuration not stated),11.7,"1.3 µM [rising, partial curve]",
Cc1ccc(C(=O)Nc2nc(-c3ccccn3)cs2)o1,-12.7,,"32.6 µM [falling, single point]"
COc1ccc(S(=O)(=O)NCCC(=O)N2CCCN(C)CC2)cc1,-3.63,,"0.00461 µM [falling, full curve, poor fit]"
O=C(OCc1c(-c2ccccc2)ncc2ccccc12)N1CCOCC1,6.86,,"0.291 µM [falling, partial curve]"
COc1cccc(CN(C)CC(=O)Nc2cccc(S(N)(=O)=O)c2)c1OC,9.86,,"2.59 µM [rising, full curve]"
CC(=O)Nc1ccc(NC(=O)C(C)OC(=O)CCCOc2ccc(Cl)cc2C)cc1 (configuration not stated),-0.64,,"6.51 µM [falling, partial curve, poor fit]"
Cc1ccc(C(=O)c2sc(Nc3ccccc3)c(C#N)c2N)cc1,-55.1,"1.16 µM [falling, partial curve]","29.1 µM [falling, single point]"
O=S(=O)(c1ccc(Cl)c(F)c1)N1CCC(c2nc(-c3ccncc3)no2)CC1,2.45,,
CC(C)(C)C1=CC(=O)C(=O)C(C(C)(C)C)=C1,-72.9,"14.6 µM [falling, partial curve, poor fit]","13 µM [falling, partial curve, poor fit]"
CCOC(=O)C1CCN(S(=O)(=O)c2cccc(C(=O)Nc3ccccc3)c2)CC1,33.4,,"6.51 µM [rising, single point]"
COc1ccccc1N1CCN(CCCNC(=O)Cn2ncc3c([nH]c4ccccc43)c2=O)CC1,0.298,,
CSc1ccc(S(=O)(=O)N2CCC(C(=O)N3CCc4ccccc4C3)CC2)cc1,19.8,,"29.1 µM [falling, single point]"
CCC1(C)Cc2c(sc(NC(=O)CCC(=O)O)c2C#N)CO1 (configuration not stated),-0.682,,"0.366 µM [falling, full curve]"
CC1CCCC(NC(=O)CN2C(=O)COc3ccccc32)C1C (configuration not stated),6.73,,"29.1 µM [rising, single point]"
COc1ccccc1CNC(=O)C1CCN(S(=O)(=O)c2cccc([N+](=O)[O-])c2)CC1,18.7,,"0.58 µM [rising, single point]"

SMILES,cell number change [%],AC50 [1],AC50 [2]
COc1cccc(-c2nc(CS(=O)CC(=O)NCc3ccc4c(c3)OCO4)c(C)o2)c1 (configuration not stated),71.8,"3.66 µM [rising, full curve]","1.84 µM [rising, full curve]"
COc1c(C)cc(Br)cc1C(=O)Nc1ccc(Cc2ccncc2)cc1,5.08,,
O=C(c1ccc(Cl)c(S(=O)(=O)N2CCCCC2)c1)N1CCN(Cc2ccccc2)CC1,-24.9,,
CC(C)(C)c1cc(=O)[nH]c(SCc2ccccc2Cl)n1,-45.8,,"4.11 µM [falling, partial curve, poor fit]"
O=S(=O)(Nc1ncccn1)c1cc(Cl)ccc1Cl,-23.9,,"0.116 µM [falling, full curve, poor fit]"
COc1ccc(CCNC(=O)Nc2cc(F)c(F)cc2Cl)cc1OC,-29,,"29.1 µM [falling, single point]"
COc1ccc(NC(=O)CSc2ccc(-c3sc(C)nc3C)nn2)cc1OC,-2.6,,"0.146 µM [rising, full curve, poor fit]"
CC(=O)Nc1ccc(NC(=O)C(C)OC(=O)C2CC(=O)N(CCc3ccccc3)C2)cc1 (configuration not stated),-7.8,,
O=C(Nc1cc(Cl)ccc1O)C1CCCO1 (configuration not stated),-12.4,,"0.461 µM [rising, full curve, poor fit]"
COC(=O)CN(C)C(=O)c1cccc(OC2CCN(S(=O)(=O)N(C)C)CC2)c1,-5.77,,
O=C(Nc1cccc(O)c1)c1noc2c1CCCCC2,-26.6,"1.46 µM [falling, partial curve, poor fit]","6.51 µM [falling, single point]"
CCOc1ccc(S(=O)(=O)N2CCCCC2)cc1NC(=O)CCc1ccc(OC)cc1,-3.88,,"14.6 µM [falling, partial curve, poor fit]"
CC1CCN(S(=O)(=O)c2ccc(Br)s2)CC1,9.44,,
Cc1ccc(/C=N/NC(=S)NC2CCS(=O)(=O)C2)cc1 (configuration not stated),,"4.11 µM [falling, partial curve, poor fit]",
Cc1c(C2N3CC4(C)CN2CC(C)(C3)C4=O)c2ccccc2n1C (configuration not stated),-19.1,,"29.1 µM [falling, partial curve]"
Cc1ccc(NC(=O)CSCC(=O)Nc2sccc2C#N)cc1,,"3.66 µM [falling, single point]",
O=C(Nc1ncc2c(n1)-c1ccccc1OC2)c1cccc([N+](=O)[O-])c1,19.3,"0.058 µM [rising, full curve, poor fit]",
COc1cccc(-n2nnc3c(=O)n(CC(=O)N4CCCc5ccccc54)cnc32)c1,38.7,"23.1 µM [rising, single point]",
CC(C)(C)OC(=O)N1CCN(C(=O)c2ncn(Cc3ccccc3)c2C(=O)N2CCN(C(=O)OC(C)(C)C)CC2)CC1,-31.5,"0.103 µM [falling, full curve, poor fit]","0.116 µM [falling, full curve, poor fit]"

# Six compounds out of the list, sorted by SMILES length, ascending:
SMILES,cell number change [%],AC50 [1],AC50 [2]
O=C(Nc1cccc(O)c1)c1noc2c1CCCCC2,-26.6,"1.46 µM [falling, partial curve, poor fit]","6.51 µM [falling, single point]"
Cc1c(C2N3CC4(C)CN2CC(C)(C3)C4=O)c2ccccc2n1C (configuration not stated),-19.1,,"29.1 µM [falling, partial curve]"
COc1ccc(NC(=O)CSc2ccc(-c3sc(C)nc3C)nn2)cc1OC,-2.6,,"0.146 µM [rising, full curve, poor fit]"
CCOc1ccc(S(=O)(=O)N2CCCCC2)cc1NC(=O)CCc1ccc(OC)cc1,-3.88,,"14.6 µM [falling, partial curve, poor fit]"
COc1cccc(-c2nc(CS(=O)CC(=O)NCc3ccc4c(c3)OCO4)c(C)o2)c1 (configuration not stated),71.8,"3.66 µM [rising, full curve]","1.84 µM [rising, full curve]"
CC(C)(C)OC(=O)N1CCN(C(=O)c2ncn(Cc3ccccc3)c2C(=O)N2CCN(C(=O)OC(C)(C)C)CC2)CC1,-31.5,"0.103 µM [falling, full curve, poor fit]","0.116 µM [falling, full curve, poor fit]"

# Reference: PubChem BioAssay AID2685 (National Center for Advancing Translational Sciences (NCATS), 2010)
